According to patent US20190359711A1:
Results are given in words; binding and its absence hold for the method and conditions named. Some entries that bind do so weakly or less than the wild type. For some assays here: Sequences can lack the tags named with a protein.

Legend:
[1] = molecular target: T1, TMEW1 (TMEFF2-FL-ECD-His-Avitag) (human) (UniProt Q9UIK5); assay: SPR (ProteOn)
T1 sequence: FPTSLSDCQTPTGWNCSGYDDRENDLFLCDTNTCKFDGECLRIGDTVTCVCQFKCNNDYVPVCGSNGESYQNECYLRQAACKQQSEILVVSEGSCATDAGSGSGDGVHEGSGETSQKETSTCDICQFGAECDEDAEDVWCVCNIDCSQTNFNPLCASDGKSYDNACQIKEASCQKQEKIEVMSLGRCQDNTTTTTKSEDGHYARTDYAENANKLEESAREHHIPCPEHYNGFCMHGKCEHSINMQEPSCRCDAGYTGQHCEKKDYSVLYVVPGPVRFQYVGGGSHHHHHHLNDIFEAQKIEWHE

[2] = molecular target: T2, TMEW19 (spTMEFF2(230-320)G3S-H6) (human) (UniProt Q9UIK5); assay: SPR (ProteOn)
T2 sequence: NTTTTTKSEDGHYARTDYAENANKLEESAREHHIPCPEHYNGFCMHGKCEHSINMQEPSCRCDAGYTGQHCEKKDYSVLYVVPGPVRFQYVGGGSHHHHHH

binding [1]: binds
binding [2]: binds
B1: TMEB565 (antibody, human IgG4 S228P, kappa, F234A L235A, V domains shown)
VH: QVQLVQSGAEVKKPGSSVKVSCKASGGTFSSYYISWVRQAPGQGLEWMGGIIPISGRANYAQKFQGRVTITADESTSTAYMELSSLRSEDTAVYYCARDGYSSGRSTTYAFDYWGQGTLVTVSS
VL: EIVLTQSPGTLSLSPGERATLSCRASQSVATYYLAWYQQKPGQAPRLLIYGASSRATGIPDRFSGSGSGTDFTLTISRLEPEDFAVYYCQQYGYNPITFGQGTKVEIKR
